Measured values published in PubChem BioAssay AID493014 (National Center for Advancing Translational Sciences (NCATS), 2011).
About 170 (0.05%) of roughly 340,000 compounds were called active. The shares of active, inactive and inconclusive entries below differ from those in the screen. Calls come from the whole dose curve; as a rule, active = well fitted inhibition curve with a large enough effect in the signal ratio, with a control signal flat (not every such curve was filed as active); inconclusive = small, poorly fitted or top-dose-only effect, or effect the other way, or a change in a side signal; inactive = flat fitted curve, though single readings scatter; the % refers to the signal ratio. Where the call is inconclusive, the potency comes from a doubtful curve fit.

Experiment: qHTS Assay to Find Inhibitors of Chronic Active B-Cell Receptor Signaling;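 for activity change, negative = inhibition: plate controls were basal doxycycline-induced cells for no effect and cells given 10 µM MG132 for full effect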
Details: ABC-DLBCL IkBa-CBG/CBR reporter, luminescence ratio (green luciferase fused to IkBa over red control in TMD8 lymphoma cells), 4 h; activity change, negative = inhibition: at 46.1 µM (top of the series)
Method in brief: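 Cell line TMD8 (human ABC DLBCL), stably expressing tet-inducible CBG68-IkBa fusion and CBR; IMDM/0.5% FBS; cpd up to 46 uM; dox induction, 4 h, 37C/5% CO2; dual luminescence; green/red ratio; MG132 control.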
Potency is the fitted concentration of half-maximal effect.

Row | SMILES | Potency | activity change, negative = inhibition
1 | Cc1ccccc1C(=O)NC(=S)Nc1ccc2[nH]c(=O)[nH]c2c1 | inconclusive: 17.8 µM [falling, partial curve, poor fit] | –
2 | CCc1ccc2nc3n[nH]c(N)c3cc2c1 | active: 12.6 µM | –
3 | CCCn1c(N)c(C(=O)CSc2ncnc3sccc23)c(=O)n(C)c1=O | – | inconclusive: -11.7%
4 | CCn1nc(C(=O)Nc2cccc3ccccc23)c(Cl)c1Cl | – | inactive: 6.41%
5 | O=C(CS(=O)c1ccc(C(F)(F)F)cc1[N+](=O)[O-])Oc1ccccc1 (configuration not stated) | inconclusive: 29.1 µM [rising, single point] | –
6 | CSc1cccc(NC(=O)OC2CCCCCCCCCCC2)c1 | – | inconclusive: 5.4%
7 | Cc1ccc(C(=O)OCC(=O)c2c[nH]c3ccccc23)cc1NC(=O)c1ccco1 | – | inconclusive: -6.11%
8 | COc1ccc(OCCN(C)Cc2c(O)ccc3ccccc23)cc1 | – | inconclusive: -19.7%
9 | CC1(CC(=O)NNC(=O)Nc2ccccc2)OCCCO1 | – | inconclusive: 5.82%
10 | COc1cccc(NC(=O)c2ccc(N3C(=O)C4CC=C(C)CC4C3=O)cc2)c1 (configuration not stated) | – | inconclusive: 11.5%
11 | C[C@H](c1ccccc1)n1nnc(COCc2ccccc2)c1C#CCOCc1ccccc1 | – | inconclusive: 0.69%
12 | CC(C)NC(=S)NCc1cccs1 | – | inconclusive: -0.59%
13 | CCn1cnc2cc(NCc3cccc(OC)c3O)ccc21 | – | inconclusive: 23.8%
14 | CN(C)S(=O)(=O)c1ccc(C(=O)N2CC(=O)Nc3ccc(F)cc3C2c2ccc(F)cc2)cc1 (configuration not stated) | – | inactive: 1.11%
15 | COc1ccc(-c2cc(C(F)(F)F)nc(SCC(=O)Nc3ccc4c(c3)OCO4)n2)cc1OC | – | inconclusive: -12.5%
16 | O=C(N/C(=C\c1cccs1)C(=O)N1CCOCC1)c1ccco1 | – | inconclusive: -4.93%
17 | O=C(O)CC/C(=C\c1cccc(NC(=O)c2ccccc2Cl)c1)c1nc2ccccc2s1 | inconclusive: 17.8 µM [falling, partial curve] | –
18 | C/C(=N/NC(=O)c1sc(NS(=O)(=O)c2ccccc2)nc1C)c1ccccc1 | inconclusive: 10.3 µM [falling, partial curve, poor fit] | –
19 | O=C(CCN1C(=O)/C(=C/C=C/c2ccccc2)SC1=S)Nc1nccs1 | inconclusive: 35.5 µM [rising, single point] | –
20 | CCC1CCCCN1C(=O)Nc1cc(Cl)ccc1OC (configuration not stated) | – | inconclusive: 9.26%
21 | CCn1c(SCC(=O)N2c3ccccc3Sc3ccccc32)nnc1-c1ccco1 | – | inconclusive: 3.42%
22 | CN(C)c1nc(-c2ccccc2)ns1 | – | inconclusive: 0.116%
23 | COc1cc(C(=O)Nc2cccc(C(C)=O)c2)cc(OC)c1OC | – | inconclusive: -1.83%
24 | Oc1ccc(/C=N/N2CCN(C3c4ccccc4-c4ccccc43)CC2)cc1O | – | inconclusive: -16.9%
25 | CCOC(=O)c1[nH]c(C)c(/C(O)=C2\C(=O)C(=O)N(CCCn3ccnc3)C2c2ccncc2)c1C (configuration not stated) | – | inactive: 2.04%
26 | O=C(NC(=S)Nc1ccc2c(c1)OCCO2)c1cccc2ccccc12 | inconclusive: 11.6 µM [falling, partial curve, poor fit] | –

Row | SMILES | Potency | activity change, negative = inhibition
27 | Cc1ccnc(NC(=O)c2ccc(Cl)c(S(=O)(=O)N3CCCC3)c2)c1 | – | inconclusive: -8.35%
28 | Cn1c(=O)c2[nH]cnc2n(C)c1=O | – | inconclusive: -1.41%
29 | COc1ccc(S(=O)(=O)Nc2cccc(C)n2)c2ccccc12 | – | inconclusive: -0.358%
30 | COc1ccc(-c2noc(CCCC(=O)O)n2)cc1 | inconclusive: 0.092 µM [rising, full curve, poor fit] | –
31 | COC(=O)c1ccccc1NC(=S)NC(=O)c1ccc2c(c1)OCO2 | inconclusive: 10 µM [falling, partial curve] | –
32 | Cc1c(C(=O)NCC2CCCO2)oc2ccc(S(=O)(=O)N3CCCC3)cc12 (configuration not stated) | – | inconclusive: -7.95%
33 | C/C(CC(=O)Nc1cc(C)ccn1)=N\NC(=O)c1cccc(C)c1O | inconclusive: 28.2 µM [falling, single point] | –
34 | O=C(CCNC(=O)c1ccc(Br)cc1)NCC1COc2ccccc2O1 (configuration not stated) | – | inconclusive: 6.16%
35 | CCC1Oc2ccc(C)cc2N(CC(=O)NCCCN2CCN(Cc3ccccc3)CC2)C1=O (configuration not stated) | – | inactive: 7.63%
36 | Cc1csc(NC(=O)CSc2nc(C(C)C)nc3ccccc23)n1 | inconclusive: 12.6 µM [falling, single point] | –
37 | Cc1cc2c(Nc3cccc(O)c3)ncnc2s1 | inconclusive: 28.2 µM [falling, single point] | –
38 | CC1(C(=O)CSc2n[nH]c(-c3ccccc3Cl)n2)CCC(=O)O1 (configuration not stated) | – | inactive: -7.59%
39 | CCOCc1c(C(=O)N2CCN(CC(=O)Nc3ccc(F)cc3)CC2)oc2ccccc12 | inconclusive: 3.26 µM [falling, full curve] | –
40 | COCc1cc(=O)n2[nH]c(-c3cccc(Br)c3)cc2n1 | inconclusive: 4.11 µM [falling, single point] | –
41 | Nc1nc(SCc2nc3scc(-c4ccccc4)c3c(=O)[nH]2)n[nH]1 | – | inconclusive: 8.37%
42 | CCc1ccccc1NC(=O)c1cc(S(=O)(=O)N2CCc3ccccc32)cn1C | – | inactive: -11.9%
43 | CC(C)C(=O)Nc1ccc2oc(-c3cc(F)c(F)cc3Cl)nc2c1 | – | inactive: 0.782%
44 | Cc1ccc(C(=O)N/C(=C\c2ccc(-c3ccccc3[N+](=O)[O-])o2)C(=O)NCCN(C)C)cc1 | – | inconclusive: -6.81%
45 | CCOc1ccccc1NC(=O)Cn1c(=O)oc2cc(Cl)ccc21 | – | inactive: -5.04%
46 | Cn1nc(-c2ccccc2)c(CSc2ccccc2)c1Cl | – | inconclusive: 28.4%
47 | CCCCCCN(C(=O)CCCCCN1C(=O)NC(c2ccccc2)C(C(=O)OCc2ccccc2)=C1C)C(C(=O)NCCCC)c1ccc(OCC(=O)OC)c(C(=O)OC)c1 (configuration not stated) | – | inconclusive: -17.5%
48 | NS(=O)(=O)c1cc(C(=O)Nc2ccc3c(c2)CCC3)ccc1Cl | inconclusive: 15.8 µM [falling, single point] | –
49 | CCCN(CC1CC1)C(=S)NC(=O)c1ccccc1Br | inconclusive: 14.6 µM [falling, partial curve, poor fit] | –
50 | CCOC(=O)N1CCC(NC(=O)CSCc2cnn(-c3ccccc3)c2-n2cccc2)CC1 | – | inconclusive: 3.77%
51 | O=C1CN2CCC1C/C2=C\c1ccnc2c(Cl)cccc12 (configuration not stated) | – | inactive: -10.1%
52 | C#CCOc1ccc(/C=C2/C(=O)ON=C2C)cc1OCC | – | inconclusive: 1.97%

Reprinted at random: five records from the list
Row | SMILES | Potency | activity change, negative = inhibition
28 | Cn1c(=O)c2[nH]cnc2n(C)c1=O | – | inconclusive: -1.41%
32 | Cc1c(C(=O)NCC2CCCO2)oc2ccc(S(=O)(=O)N3CCCC3)cc12 (configuration not stated) | – | inconclusive: -7.95%
46 | Cn1nc(-c2ccccc2)c(CSc2ccccc2)c1Cl | – | inconclusive: 28.4%
48 | NS(=O)(=O)c1cc(C(=O)Nc2ccc3c(c2)CCC3)ccc1Cl | inconclusive: 15.8 µM [falling, single point] | –
31 | COC(=O)c1ccccc1NC(=S)NC(=O)c1ccc2c(c1)OCO2 | inconclusive: 10 µM [falling, partial curve] | –

Carrying on.

Row | SMILES | Potency | activity change, negative = inhibition
53 | Cc1ccc(S(=O)(=O)CC(CN2CCCCC2)N2CCCCC2)cc1 (configuration not stated) | inconclusive: 3.98 µM [falling, single point] | –
54 | O=C(/C=C/c1cn(-c2ccccc2)nc1-c1cccnc1)c1ccco1 | inconclusive: 15.8 µM [falling, single point] | –
55 | Cc1onc(-c2ccccc2)c1C(=O)NNC(=O)c1ccccc1O | inconclusive: 29.1 µM [falling, single point] | –
56 | CCOC(=O)[C@H]1[C@H]2COc3ccc(C)cc3[C@@H]2N2C(=O)c3ccccc3NC(=O)[C@@]12C | – | inconclusive: 0.149%
57 | Cn1nnnc1SCc1ccc(C(=O)Nc2ccc(Br)cc2)cc1 | – | inactive: 16.7%
58 | Cc1noc(C)c1C(=O)OCC(=O)Nc1cc(S(=O)(=O)N2CCOCC2)ccc1Cl | inconclusive: 11.2 µM [falling, partial curve] | –
59 | CNC(=O)c1cc2c(s1)-c1ccccc1CC2 | inconclusive: 22.4 µM [falling, partial curve, poor fit] | –
60 | CCC(=O)Nc1nc(-c2ccccc2)ns1 | – | inconclusive: -0.406%
61 | COC(=O)c1ccc2c(=O)n(CCCCCC(=O)NCc3ccccc3)c(=O)[nH]c2c1 | inconclusive: 0.461 µM [rising, full curve, poor fit] | –
62 | C=CCn1c(COc2ccc(F)cc2)nnc1SCC(=O)Nc1cccc(S(N)(=O)=O)c1 | – | inconclusive: 1.28%
63 | CNC(=O)[C@H]1O[C@@H](n2cnc3c(NCc4cccc(I)c4)ncnc32)[C@H](O)[C@@H]1O | inconclusive: 0.411 µM [falling, full curve] | –
64 | COc1ccc(NC(=O)CSc2nc(=O)n(CCN3CCOCC3)c3c2CCC3)c(OC)c1 | – | inconclusive: 5.12%
65 | O=C(Cc1cccs1)Nc1nc2ccccc2s1 | – | inconclusive: -10.8%
66 | O=S1(=O)[C@H]2C[C@@H]3C=C[C@@]2(CN1Cc1ccc(Cl)cc1)O3 | – | inconclusive: -9.92%
67 | O=C(C1CCCN(S(=O)(=O)c2cccc3nonc23)C1)N1CCN(c2cccc(Cl)c2)CC1 (configuration not stated) | – | inactive: 8.36%
68 | O=C(COC(=O)c1cc(-c2cccnc2)nc2ccccc12)Nc1ccc(F)cc1F | inconclusive: 3.26 µM [falling, partial curve, poor fit] | –
69 | CCCN1CCC(=NNC(=O)CSc2cc(C)c(Br)cc2C)CC1 | – | inconclusive: -9.4%
70 | COc1cc(/C=N/Nc2nc3c(c(=O)n(C)c(=O)n3C)n2Cc2ccccc2)ccc1OC(=O)c1ccco1 | inconclusive: 13 µM [falling, partial curve] | –
71 | CCc1ccc(NC(=O)c2cc(-c3ccc4c(c3)OCO4)on2)cc1 | – | inactive: -17.3%
72 | CC(OC(=O)[C@@H]1CCCN1C(=O)c1cccs1)C(=O)Nc1cccc([N+](=O)[O-])c1 (some centres not stated) | – | inactive: -0.0785%
73 | Cc1cc(C)c(CN2CCC(n3nccc3NC(=O)CCOc3ccccc3)CC2)cc1C | – | inactive: -6.24%
74 | C/C=C/C(=O)N(CC)c1ccccc1C | – | inconclusive: 1.1%
75 | COc1ccc(-c2nc3ccccc3c(=O)n2CCOc2ccc(C)cc2C)cc1 | – | inconclusive: -6.37%
76 | O=C(/C=C/c1ccco1)Nc1cccc(C(=O)Nc2ccccc2C(=O)O)c1 | inconclusive: 22.4 µM [falling, partial curve] | –
77 | c1ccc(CCc2nc(-c3ccccn3)no2)cc1 | inconclusive: 29.1 µM [rising, single point] | –
